Data from paper PMC9042866.
Results are given in words; binding and its absence hold for the method and conditions named. In cells and extracts the contact can be indirect. Some binding calls cover weakened binding; strength is not graded here. Where a sequence is shown, tags or fusion partners need not be part of it.

The chains behind the UniProt entries cited, without tags or fusion partners.
UniProt O75369: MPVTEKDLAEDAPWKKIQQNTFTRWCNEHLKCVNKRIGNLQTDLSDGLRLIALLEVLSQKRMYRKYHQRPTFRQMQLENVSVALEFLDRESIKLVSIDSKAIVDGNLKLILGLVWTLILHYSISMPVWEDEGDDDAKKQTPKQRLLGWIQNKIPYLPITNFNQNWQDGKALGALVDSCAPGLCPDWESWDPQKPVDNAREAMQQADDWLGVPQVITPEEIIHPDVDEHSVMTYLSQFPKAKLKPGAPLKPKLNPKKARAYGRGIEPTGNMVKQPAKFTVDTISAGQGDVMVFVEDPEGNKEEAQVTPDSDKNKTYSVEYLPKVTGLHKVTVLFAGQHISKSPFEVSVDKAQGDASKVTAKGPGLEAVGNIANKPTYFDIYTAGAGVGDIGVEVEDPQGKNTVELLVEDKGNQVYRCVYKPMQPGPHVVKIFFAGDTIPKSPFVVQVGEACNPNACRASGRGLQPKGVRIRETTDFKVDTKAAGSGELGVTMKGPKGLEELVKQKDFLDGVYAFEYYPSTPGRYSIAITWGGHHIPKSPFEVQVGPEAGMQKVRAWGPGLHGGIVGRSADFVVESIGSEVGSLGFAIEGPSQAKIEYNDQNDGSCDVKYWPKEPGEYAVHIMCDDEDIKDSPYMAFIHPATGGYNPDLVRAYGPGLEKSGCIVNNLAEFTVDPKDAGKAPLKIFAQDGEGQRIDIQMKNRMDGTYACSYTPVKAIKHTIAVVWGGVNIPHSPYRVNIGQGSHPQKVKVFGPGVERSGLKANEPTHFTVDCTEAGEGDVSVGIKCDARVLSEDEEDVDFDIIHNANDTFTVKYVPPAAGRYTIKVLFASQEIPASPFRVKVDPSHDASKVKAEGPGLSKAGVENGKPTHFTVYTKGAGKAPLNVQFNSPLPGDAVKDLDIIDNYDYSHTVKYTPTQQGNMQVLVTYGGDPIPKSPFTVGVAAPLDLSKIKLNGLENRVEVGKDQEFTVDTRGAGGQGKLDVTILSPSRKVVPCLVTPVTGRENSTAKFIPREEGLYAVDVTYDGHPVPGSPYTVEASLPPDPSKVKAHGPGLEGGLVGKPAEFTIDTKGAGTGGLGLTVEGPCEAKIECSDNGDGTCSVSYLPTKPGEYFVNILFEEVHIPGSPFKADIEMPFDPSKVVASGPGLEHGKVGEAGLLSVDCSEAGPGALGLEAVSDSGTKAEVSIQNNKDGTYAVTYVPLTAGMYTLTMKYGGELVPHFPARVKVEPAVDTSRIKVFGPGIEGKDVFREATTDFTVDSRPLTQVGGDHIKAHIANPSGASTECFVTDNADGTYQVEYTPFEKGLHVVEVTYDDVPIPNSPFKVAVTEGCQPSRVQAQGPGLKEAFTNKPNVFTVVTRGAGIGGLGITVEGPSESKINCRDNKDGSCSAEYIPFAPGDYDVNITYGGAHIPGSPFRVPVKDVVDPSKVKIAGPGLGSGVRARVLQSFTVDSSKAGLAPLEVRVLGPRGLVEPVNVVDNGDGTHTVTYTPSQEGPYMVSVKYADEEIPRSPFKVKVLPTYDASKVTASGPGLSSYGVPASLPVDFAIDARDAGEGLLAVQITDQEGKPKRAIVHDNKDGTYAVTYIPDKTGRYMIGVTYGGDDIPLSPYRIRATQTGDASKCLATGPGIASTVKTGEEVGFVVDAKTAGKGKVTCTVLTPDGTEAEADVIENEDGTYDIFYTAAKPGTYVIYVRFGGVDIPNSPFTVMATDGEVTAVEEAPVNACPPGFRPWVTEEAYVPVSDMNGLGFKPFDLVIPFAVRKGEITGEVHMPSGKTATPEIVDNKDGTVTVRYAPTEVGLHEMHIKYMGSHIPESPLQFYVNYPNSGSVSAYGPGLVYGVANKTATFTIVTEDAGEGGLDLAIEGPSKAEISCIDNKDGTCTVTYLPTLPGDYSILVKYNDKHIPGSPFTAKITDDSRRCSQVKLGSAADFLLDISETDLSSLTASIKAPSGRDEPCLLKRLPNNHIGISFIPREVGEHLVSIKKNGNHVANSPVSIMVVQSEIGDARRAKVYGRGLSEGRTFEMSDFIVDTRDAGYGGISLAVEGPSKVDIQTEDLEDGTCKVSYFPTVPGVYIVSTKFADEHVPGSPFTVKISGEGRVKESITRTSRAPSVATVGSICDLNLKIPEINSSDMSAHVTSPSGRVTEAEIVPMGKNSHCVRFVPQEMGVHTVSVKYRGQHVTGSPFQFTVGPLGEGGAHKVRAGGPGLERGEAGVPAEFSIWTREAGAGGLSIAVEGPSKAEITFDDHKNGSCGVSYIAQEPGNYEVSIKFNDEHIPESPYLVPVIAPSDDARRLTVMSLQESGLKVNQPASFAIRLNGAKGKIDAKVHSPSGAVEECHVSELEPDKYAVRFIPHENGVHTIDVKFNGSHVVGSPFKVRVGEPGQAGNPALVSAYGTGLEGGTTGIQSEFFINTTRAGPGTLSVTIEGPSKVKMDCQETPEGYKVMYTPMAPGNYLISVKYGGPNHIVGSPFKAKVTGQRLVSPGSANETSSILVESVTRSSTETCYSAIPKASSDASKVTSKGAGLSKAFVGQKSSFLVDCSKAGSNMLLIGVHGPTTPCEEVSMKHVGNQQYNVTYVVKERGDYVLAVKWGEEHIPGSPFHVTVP
UniProt Q15797: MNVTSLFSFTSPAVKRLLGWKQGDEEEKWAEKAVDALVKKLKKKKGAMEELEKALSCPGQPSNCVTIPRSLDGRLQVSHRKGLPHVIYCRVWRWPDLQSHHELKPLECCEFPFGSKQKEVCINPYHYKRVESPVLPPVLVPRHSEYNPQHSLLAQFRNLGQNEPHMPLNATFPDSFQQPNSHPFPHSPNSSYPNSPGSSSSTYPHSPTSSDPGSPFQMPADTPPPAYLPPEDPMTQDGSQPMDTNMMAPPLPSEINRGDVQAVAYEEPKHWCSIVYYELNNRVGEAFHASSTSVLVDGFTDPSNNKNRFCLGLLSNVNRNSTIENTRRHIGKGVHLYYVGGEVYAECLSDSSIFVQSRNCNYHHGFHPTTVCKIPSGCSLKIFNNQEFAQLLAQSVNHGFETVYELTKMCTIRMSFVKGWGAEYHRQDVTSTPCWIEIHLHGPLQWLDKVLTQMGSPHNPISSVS
UniProt O15105: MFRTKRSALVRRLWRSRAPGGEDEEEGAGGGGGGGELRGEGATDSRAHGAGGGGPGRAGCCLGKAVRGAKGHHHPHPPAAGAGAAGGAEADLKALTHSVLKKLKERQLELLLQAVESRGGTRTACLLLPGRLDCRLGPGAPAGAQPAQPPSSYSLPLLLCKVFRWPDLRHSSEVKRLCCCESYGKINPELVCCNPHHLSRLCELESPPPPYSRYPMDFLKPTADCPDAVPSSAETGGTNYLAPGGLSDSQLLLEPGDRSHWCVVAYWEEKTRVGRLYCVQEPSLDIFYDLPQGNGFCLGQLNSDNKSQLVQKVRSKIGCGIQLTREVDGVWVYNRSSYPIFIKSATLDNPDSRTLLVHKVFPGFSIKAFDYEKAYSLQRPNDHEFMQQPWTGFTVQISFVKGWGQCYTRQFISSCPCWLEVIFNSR

target: GFP-tagged human filamin B (FLNB-GFP) (human) (UniProt O75369); experiment: co-IP; lysates of wild-type MEFs co-transfected with FLNB-GFP and a Flag- or HA-tagged Smad plasmid; immunoprecipitated with an anti-GFP antibody (Protein A/G PLUS-Agarose); blots probed with GFP, Flag or HA antibodies

| binding | Molecule |
| --- | --- |
| binds | Flag-tagged human Smad 1 (Smad 1-Flag) (from UniProt Q15797 1-465) |
| binds | HA-tagged human Smad 7 (Smad 7-HA) (from UniProt O15105 1-426) |
| binds | HA-tagged human Smad 6 (Smad 6-HA) (protein, UniProt O43541 1-496) MFRSKRSGLVRRLWRSRVVPDREEGGSGGGGGGDEDGSLGSRAEPAPRAREGGGCGRSEVRPVAPRRPRDAVGQRGAQGAGRRRRAGGPPRPMSEPGAGAGSSLLDVAEPGGPGWLPESDCETVTCCLFSERDAAGAPRDASDPLAGAALEPAGGGRSREARSRLLLLEQELKTVTYSLLKRLKERSLDTLLEAVESRGGVPGGCVLVPRADLRLGGQPAPPQLLLGRLFRWPDLQHAVELKPLCGCHSFAAAADGPTVCCNPYHFSRLCGPESPPPPYSRLSPRDEYKPLDLSDSTLSYTETEATNSLITAPGEFSDASMSPDATKPSHWCSVAYWEHRTRVGRLYAVYDQAVSIFYDLPQGSGFCLGQLNLEQRSESVRRTRSKIGFGILLSKEPDGVWAYNRGEHPIFVNSPTLDAPGGRALVVRKVPPGYSIKVFDFERSGLQHAPEPDAADGPYDPNSVRISFAKGWGPCYSRQFITSCPCWLEILLNNPR |
